Measured data: PubChem BioAssay AID504793 (Drosophila RNAi Screening Center, 2011)
The deposit covers about 23,000 reagents; below is an unselected part of those with a known target gene and a result. Over the whole deposit, 62 (0.27%) got an active call. 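Calls come from follow-up tests whose scores are not deposited, so confirmed genes may have low counts here; counts are not normalised per plate.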 The raw values are shown without normalisation. A plus sign joins genes that one reagent is predicted to hit.

Purpose: 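Knock-downs allowing continued mitosis even though DNA is damaged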 (primary screen)
Cell system: Drosophila S2R+ cells
Knock-down reagent: long dsRNA against Drosophila genes, about 0.25 µg dsRNA per well
Time to read-out: 4 days of dsRNA, then 4 hours of drug before read-out
Treatment: doxorubicin 0.5 µM for 4 hours to cause double-strand breaks, in cells also given a low, harmless dose of dsRNA against nbs to sensitise the assay
Detection: 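Per-well count of mitotic cells stained for phospho-histone H3 after doxorubicin exposure, used as mitotic index; counts are raw and not normalised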
Reading the numbers: mitotic cells: higher = more cells in mitosis, weaker G2 arrest
Rule for the call: 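Genes are called active only when high mitotic counts were reproduced with independent dsRNAs and mitosis was checked for delay without damage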
Calls: active = confirmed in follow-up tests; inactive = not confirmed

target,DRSC id,"mitotic cells, replicate 1",outcome
Pde6,DRSC16401,4,inactive
Pde6,DRSC16402,8,inactive
Pde6,DRSC16403,6,inactive
CG3862,DRSC00631,4,inactive
CG3862,DRSC28505,8,inactive
eloF,DRSC15162,5,inactive
eloF,DRSC25406,9,inactive
Ugt35A1,DRSC16892,2,inactive
Ugt35A1,DRSC25438,8,inactive
Bsg,DRSC01010,4,inactive
Bsg,DRSC01011,4,inactive
tacc,DRSC12019,16,inactive
tacc,DRSC12388,10,inactive
tacc,DRSC29052,7,inactive
vilya,DRSC18588,12,inactive
CG7275,DRSC10796,6,inactive
Su(fu),DRSC16871,7,inactive
CG6435,DRSC06987,7,inactive
SecCl,DRSC10887,2,inactive
Cdc14,DRSC03013,14,inactive
Cdc14,DRSC26430,7,inactive
CG31054 (retired record),DRSC22134,10,inactive
Hcs,DRSC12070,7,inactive
Hcs,DRSC12256,4,inactive
Oatp26F,DRSC02149,3,inactive
Oatp26F,DRSC02272,3,inactive
Oatp26F,DRSC02695,6,inactive
Oatp26F,DRSC27346,5,inactive
Tailor,DRSC12526,5,inactive
fz3,DRSC18779,15,inactive
fz3,DRSC29682,5,inactive
CG11373,DRSC12170,3,inactive
msd1,DRSC08383,38,inactive
CG13204,DRSC06328,5,inactive
CG13204,DRSC27988,18,inactive
snRNA:U1:95Cc + snRNA:U1:95Cb,DRSC13641,10,inactive
CG13384,DRSC02258,6,inactive
CG11710,DRSC20485,4,inactive
CG11710,DRSC29756,9,inactive
sov,DRSC17930,5,inactive
sov,DRSC24302,1,inactive
CG2865,DRSC18527,8,inactive
CG2865,DRSC18528,12,inactive
CG2865,DRSC28086,8,inactive
CG9444,DRSC16493,5,inactive
